One assay concerns the target T1, GFP–JAZF1 (UniProt Q86VZ6).
T1 sequence: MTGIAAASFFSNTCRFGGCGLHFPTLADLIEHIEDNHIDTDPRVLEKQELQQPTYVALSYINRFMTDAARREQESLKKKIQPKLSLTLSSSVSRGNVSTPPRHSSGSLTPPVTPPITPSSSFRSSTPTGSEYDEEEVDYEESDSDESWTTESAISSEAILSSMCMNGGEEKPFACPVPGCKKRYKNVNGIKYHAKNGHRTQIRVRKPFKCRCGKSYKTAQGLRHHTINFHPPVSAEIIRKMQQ
The assay can be described thus: affinity purification with mass spectrometry; SILAC-labelled HeLa Kyoto cells transiently expressing GFP or GFP–JAZF1; single-step affinity purification of soluble nuclear proteins on GFP nanotrap beads; ratio cutoff 4.

Amino acid sequences for entries named in this document (tags omitted).
UniProt Q9GZN1: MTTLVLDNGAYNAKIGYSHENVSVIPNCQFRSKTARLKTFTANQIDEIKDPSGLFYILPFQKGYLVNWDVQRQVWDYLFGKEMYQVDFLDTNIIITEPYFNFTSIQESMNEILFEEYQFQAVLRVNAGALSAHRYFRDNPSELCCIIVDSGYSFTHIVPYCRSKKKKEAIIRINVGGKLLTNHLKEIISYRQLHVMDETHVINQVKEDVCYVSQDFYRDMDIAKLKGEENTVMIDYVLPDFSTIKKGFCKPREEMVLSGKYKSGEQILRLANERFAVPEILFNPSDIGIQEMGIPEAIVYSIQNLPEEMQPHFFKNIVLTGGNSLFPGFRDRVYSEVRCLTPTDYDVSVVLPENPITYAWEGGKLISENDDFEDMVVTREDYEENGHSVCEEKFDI
UniProt Q05BQ5: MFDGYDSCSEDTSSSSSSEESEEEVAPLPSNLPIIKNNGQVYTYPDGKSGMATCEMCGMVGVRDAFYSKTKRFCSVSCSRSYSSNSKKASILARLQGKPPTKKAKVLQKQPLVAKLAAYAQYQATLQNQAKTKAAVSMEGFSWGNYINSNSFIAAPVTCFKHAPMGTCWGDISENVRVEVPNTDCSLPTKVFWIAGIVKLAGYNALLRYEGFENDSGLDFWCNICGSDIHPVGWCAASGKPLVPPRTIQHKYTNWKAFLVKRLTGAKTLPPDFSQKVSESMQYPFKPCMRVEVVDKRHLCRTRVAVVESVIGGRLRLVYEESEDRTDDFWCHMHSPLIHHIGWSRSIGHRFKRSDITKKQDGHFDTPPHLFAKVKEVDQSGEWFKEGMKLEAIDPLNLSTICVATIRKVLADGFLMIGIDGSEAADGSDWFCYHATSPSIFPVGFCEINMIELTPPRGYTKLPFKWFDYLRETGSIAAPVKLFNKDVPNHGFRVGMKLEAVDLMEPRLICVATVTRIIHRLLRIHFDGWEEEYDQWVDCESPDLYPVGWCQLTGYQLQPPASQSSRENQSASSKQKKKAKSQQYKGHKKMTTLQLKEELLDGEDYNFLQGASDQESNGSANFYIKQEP
UniProt Q6ZRS2: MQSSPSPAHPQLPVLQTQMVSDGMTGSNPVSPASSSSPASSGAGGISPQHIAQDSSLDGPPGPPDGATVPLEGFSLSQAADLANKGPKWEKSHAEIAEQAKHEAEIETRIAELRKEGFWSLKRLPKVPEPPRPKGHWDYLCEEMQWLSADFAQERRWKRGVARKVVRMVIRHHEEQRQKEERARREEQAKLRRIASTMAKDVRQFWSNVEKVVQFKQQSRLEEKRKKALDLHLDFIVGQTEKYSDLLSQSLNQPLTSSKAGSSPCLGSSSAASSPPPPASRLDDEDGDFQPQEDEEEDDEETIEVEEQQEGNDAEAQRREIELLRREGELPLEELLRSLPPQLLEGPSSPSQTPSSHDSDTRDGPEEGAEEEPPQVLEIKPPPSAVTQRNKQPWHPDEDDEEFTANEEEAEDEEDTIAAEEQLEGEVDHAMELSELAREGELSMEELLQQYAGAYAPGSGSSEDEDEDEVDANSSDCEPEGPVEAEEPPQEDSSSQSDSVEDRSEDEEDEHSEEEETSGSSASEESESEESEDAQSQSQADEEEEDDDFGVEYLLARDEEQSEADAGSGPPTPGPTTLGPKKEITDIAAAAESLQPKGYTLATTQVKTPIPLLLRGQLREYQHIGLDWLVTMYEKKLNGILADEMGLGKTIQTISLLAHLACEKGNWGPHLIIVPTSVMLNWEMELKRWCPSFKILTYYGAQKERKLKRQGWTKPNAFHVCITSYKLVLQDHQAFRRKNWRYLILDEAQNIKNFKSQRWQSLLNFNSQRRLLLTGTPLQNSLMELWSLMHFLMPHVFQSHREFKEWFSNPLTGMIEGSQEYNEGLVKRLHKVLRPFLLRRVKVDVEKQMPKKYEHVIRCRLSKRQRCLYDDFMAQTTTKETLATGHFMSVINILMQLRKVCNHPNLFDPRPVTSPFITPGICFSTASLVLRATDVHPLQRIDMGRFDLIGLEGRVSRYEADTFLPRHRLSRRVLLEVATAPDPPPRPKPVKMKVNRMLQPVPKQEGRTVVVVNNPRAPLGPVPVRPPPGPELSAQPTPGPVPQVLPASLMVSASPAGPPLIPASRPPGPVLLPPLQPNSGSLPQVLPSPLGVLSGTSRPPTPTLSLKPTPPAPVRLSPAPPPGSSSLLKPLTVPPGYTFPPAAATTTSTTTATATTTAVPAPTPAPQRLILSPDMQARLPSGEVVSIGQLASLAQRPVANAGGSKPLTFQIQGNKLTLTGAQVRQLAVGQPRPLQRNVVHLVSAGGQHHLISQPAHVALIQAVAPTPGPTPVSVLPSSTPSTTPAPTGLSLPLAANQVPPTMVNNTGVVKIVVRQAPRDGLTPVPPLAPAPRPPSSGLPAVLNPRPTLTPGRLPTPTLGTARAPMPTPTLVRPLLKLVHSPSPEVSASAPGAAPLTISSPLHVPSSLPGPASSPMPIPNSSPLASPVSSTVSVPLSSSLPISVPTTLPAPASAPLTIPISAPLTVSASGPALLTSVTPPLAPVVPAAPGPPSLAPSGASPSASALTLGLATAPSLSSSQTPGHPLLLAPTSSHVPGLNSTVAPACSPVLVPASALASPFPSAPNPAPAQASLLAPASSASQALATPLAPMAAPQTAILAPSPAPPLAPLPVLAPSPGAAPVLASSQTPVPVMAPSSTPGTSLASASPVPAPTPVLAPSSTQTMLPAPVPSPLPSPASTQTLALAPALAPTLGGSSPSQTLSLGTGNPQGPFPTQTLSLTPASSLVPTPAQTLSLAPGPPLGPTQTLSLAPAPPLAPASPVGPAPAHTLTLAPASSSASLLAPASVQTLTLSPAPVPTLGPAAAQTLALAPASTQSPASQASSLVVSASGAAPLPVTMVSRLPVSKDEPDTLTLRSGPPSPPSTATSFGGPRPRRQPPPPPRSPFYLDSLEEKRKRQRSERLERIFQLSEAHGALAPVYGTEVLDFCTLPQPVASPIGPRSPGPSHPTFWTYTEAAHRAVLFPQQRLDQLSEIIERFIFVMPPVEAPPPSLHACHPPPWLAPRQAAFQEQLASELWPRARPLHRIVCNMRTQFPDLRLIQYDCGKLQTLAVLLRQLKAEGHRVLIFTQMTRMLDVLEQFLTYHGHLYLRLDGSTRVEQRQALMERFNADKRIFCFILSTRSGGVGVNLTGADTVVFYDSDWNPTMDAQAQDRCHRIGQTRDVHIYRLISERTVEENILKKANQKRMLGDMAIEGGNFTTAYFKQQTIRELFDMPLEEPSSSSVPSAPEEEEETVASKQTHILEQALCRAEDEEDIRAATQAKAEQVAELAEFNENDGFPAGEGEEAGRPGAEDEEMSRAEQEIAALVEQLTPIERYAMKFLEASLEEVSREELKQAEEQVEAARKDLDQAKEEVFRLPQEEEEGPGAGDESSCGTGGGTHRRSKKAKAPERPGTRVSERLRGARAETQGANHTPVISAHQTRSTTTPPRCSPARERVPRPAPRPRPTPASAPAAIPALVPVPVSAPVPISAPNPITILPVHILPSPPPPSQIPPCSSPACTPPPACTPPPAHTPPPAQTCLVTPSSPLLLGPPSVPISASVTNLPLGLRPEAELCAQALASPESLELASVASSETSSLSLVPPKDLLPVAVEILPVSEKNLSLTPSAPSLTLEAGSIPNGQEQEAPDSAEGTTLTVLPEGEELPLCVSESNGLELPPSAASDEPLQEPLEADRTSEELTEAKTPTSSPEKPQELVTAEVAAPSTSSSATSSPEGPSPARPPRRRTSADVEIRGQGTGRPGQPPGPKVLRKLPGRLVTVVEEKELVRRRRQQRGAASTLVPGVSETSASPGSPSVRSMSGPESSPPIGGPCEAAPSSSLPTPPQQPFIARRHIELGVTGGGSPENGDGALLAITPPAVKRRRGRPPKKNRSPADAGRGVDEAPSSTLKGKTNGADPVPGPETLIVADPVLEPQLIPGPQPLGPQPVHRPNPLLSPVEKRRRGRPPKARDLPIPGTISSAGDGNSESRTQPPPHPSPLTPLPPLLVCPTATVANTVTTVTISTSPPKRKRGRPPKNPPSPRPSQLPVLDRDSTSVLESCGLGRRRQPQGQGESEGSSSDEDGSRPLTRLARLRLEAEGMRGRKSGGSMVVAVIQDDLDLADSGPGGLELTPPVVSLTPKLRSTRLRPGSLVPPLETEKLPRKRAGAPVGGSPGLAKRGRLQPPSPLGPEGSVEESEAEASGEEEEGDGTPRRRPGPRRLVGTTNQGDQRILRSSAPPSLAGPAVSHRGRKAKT

Another assay has as its target GFP–H2A.X (human) (UniProt P16104). As to the kind of experiment: affinity purification with mass spectrometry; SILAC-labelled HeLa Kyoto cells stably expressing GFP, GFP–H2A, –H2A.X, –H2A.Bbd or –H2A.Z.1; single-step affinity purification of soluble (chromatin-free) nuclear proteins on GFP nanotrap beads; ratio cutoff 4 and 0.25 (forward and reverse).

Data on 4 substances can be found in PMC7826843.

Results are given in words; binding and its absence hold for the method and conditions named. Binding seen in cells or lysates may run through a third protein. A yes stands for co-enrichment or nearness to the bait. Other partners may have been found. For some of these results: No binding means not detected with the bait. For some of these results: Sequences can lack the tags named with a protein.

For ACTR6 (from UniProt Q9GZN1 1-396), the binding result with GFP–JAZF1 is on record as “no binding”.

Take “MBT-domain-containing protein MBTD1 (from UniProt Q05BQ5 1-628)”: the binding result in the assay with GFP–JAZF1 is given as “binds”.

With MCM2 (from UniProt P49736 1-904), the binding entry with GFP–H2A.X (human) is on record as “binds”.

SRCAP (from UniProt Q6ZRS2 1-3230): the binding result in the assay with GFP–JAZF1 is on record as “no binding”.
